Data from the supplement of paper PMC10849652.
The list shows a part of the results.

Protein sequences, listed by entry. Tags and fused reporters are not part of them. Lines headed by an entry give the natural chain unless they say otherwise; changes in a name come on top.
UniProt P48960: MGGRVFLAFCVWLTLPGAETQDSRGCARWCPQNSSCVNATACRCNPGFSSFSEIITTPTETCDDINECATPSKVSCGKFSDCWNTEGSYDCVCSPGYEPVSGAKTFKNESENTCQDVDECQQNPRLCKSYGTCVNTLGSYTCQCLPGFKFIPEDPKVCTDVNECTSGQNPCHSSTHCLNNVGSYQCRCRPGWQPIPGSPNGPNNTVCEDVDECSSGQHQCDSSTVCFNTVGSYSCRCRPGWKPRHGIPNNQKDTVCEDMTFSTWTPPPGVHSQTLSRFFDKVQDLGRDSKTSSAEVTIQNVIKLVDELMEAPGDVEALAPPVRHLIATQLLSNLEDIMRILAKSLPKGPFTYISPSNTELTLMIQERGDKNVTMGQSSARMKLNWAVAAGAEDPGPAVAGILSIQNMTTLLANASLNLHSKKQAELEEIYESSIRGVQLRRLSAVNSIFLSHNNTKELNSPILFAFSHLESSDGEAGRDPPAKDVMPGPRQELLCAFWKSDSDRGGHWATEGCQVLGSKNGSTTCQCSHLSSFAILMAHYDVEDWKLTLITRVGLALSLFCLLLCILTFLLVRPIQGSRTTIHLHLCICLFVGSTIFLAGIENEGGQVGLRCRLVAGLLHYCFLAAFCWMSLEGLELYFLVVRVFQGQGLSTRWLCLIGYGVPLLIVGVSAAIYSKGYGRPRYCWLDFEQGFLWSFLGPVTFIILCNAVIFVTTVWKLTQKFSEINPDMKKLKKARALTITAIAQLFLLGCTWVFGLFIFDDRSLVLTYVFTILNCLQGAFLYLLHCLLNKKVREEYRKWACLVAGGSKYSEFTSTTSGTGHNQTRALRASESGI
UniProt P49368: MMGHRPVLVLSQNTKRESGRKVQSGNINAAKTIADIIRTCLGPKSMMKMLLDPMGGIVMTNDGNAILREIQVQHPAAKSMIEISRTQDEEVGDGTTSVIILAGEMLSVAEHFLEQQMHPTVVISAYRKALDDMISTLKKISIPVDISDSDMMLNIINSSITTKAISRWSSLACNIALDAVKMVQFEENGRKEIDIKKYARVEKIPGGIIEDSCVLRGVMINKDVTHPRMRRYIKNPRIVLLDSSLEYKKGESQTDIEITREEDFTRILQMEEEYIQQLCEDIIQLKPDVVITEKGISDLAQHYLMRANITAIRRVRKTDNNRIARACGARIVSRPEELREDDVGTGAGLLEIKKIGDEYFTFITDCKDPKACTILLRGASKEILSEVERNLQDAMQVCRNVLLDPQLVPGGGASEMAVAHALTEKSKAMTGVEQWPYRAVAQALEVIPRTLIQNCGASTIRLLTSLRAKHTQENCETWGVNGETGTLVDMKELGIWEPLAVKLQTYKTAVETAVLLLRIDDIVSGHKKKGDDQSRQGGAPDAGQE
UniProt Q96CT7: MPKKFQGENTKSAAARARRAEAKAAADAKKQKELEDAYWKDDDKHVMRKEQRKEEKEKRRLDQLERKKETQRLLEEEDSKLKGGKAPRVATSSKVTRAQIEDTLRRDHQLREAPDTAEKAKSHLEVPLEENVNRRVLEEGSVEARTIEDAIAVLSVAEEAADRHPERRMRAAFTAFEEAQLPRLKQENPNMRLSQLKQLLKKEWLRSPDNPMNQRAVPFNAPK
UniProt Q9UJX2, whole entry, looked up: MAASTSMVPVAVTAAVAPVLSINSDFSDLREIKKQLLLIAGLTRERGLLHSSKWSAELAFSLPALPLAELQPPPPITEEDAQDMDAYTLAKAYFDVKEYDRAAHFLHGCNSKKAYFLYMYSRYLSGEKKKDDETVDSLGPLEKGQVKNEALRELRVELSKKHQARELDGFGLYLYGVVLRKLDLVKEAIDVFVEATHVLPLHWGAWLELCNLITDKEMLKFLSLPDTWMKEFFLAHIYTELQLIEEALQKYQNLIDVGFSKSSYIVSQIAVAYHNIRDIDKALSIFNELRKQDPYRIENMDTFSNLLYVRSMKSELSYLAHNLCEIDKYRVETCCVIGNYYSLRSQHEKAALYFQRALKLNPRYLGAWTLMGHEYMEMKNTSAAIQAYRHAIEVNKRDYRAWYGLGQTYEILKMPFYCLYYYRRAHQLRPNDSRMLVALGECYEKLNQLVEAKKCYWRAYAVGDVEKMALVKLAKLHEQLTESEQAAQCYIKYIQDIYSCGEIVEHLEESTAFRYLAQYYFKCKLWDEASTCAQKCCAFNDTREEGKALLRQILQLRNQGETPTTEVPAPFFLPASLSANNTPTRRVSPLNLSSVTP
UniProt Q6P4E1: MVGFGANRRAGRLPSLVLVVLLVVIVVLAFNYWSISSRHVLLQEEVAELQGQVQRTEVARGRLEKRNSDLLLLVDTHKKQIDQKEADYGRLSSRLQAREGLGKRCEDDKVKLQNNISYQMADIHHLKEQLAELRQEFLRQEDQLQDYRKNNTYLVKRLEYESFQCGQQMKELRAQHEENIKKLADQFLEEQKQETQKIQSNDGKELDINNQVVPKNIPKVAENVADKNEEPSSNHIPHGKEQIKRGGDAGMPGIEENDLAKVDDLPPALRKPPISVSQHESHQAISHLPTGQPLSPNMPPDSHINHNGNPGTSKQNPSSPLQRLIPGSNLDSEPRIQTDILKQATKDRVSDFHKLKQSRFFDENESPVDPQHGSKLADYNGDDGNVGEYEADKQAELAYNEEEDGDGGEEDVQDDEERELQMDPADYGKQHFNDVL
UniProt Q9H6F5: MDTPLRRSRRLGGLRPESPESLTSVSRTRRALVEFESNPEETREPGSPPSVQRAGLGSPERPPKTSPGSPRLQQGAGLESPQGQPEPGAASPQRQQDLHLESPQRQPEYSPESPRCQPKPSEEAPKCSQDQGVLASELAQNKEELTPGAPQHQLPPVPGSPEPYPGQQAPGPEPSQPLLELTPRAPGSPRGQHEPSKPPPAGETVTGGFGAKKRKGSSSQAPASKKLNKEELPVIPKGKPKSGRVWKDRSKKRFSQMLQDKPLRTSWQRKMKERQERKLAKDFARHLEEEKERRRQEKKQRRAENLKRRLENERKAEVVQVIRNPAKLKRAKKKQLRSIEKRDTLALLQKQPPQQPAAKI
UniProt O14618: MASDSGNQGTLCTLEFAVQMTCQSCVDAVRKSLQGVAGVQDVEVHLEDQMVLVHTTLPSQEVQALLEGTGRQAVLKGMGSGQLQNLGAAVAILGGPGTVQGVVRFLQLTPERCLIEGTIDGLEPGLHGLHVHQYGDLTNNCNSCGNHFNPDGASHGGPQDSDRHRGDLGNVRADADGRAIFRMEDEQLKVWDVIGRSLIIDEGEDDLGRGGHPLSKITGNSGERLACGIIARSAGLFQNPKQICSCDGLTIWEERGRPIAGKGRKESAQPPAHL
UniProt P42574: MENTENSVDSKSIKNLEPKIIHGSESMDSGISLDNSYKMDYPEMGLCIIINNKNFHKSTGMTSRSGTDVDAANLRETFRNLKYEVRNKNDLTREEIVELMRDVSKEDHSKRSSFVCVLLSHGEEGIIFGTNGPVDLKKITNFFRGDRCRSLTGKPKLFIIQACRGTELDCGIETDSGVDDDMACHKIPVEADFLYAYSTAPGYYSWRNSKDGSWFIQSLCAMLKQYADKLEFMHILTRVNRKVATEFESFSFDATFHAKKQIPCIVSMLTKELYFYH
UniProt P40227, whole entry, looked up: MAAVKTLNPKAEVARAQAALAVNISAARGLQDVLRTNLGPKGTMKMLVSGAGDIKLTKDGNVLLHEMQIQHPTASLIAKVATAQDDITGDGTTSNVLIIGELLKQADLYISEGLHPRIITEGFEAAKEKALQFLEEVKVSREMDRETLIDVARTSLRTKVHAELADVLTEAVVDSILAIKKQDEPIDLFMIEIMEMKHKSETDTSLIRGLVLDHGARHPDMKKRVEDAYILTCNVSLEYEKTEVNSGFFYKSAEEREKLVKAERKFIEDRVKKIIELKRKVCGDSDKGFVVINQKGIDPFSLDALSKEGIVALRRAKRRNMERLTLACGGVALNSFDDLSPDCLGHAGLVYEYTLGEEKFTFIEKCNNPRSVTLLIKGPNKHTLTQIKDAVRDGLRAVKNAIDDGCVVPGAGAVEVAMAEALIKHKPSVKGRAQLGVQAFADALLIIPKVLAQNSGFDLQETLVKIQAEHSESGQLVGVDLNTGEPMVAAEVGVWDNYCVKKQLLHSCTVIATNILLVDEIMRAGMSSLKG
UniProt P83916, whole entry, looked up: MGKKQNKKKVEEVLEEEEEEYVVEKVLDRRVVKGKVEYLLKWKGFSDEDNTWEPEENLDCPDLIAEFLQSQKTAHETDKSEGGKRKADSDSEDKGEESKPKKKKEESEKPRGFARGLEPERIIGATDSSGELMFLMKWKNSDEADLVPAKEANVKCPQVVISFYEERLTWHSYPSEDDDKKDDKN
UniProt O75794: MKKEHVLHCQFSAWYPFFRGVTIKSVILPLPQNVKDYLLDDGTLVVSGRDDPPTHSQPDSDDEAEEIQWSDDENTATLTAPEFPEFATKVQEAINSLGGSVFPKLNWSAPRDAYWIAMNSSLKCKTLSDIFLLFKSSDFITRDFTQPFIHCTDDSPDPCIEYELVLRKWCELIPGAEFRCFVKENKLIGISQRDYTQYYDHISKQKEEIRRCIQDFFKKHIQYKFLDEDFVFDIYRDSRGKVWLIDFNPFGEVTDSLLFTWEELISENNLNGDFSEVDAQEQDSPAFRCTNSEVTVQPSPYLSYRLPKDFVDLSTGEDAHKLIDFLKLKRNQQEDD
UniProt P04040: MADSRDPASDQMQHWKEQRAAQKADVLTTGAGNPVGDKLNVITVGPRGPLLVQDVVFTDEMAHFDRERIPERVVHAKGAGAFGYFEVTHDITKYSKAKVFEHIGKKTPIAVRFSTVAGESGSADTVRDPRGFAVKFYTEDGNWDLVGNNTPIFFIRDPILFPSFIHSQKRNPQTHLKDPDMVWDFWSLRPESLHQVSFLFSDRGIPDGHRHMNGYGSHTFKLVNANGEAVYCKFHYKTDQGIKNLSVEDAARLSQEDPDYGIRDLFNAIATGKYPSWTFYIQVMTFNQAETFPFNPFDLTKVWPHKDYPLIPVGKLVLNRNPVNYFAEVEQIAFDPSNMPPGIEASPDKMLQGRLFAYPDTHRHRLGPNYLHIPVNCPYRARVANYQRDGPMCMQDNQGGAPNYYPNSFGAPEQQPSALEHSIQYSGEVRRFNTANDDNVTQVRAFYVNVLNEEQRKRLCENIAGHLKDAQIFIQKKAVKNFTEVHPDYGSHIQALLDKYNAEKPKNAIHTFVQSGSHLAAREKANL
UniProt P78371: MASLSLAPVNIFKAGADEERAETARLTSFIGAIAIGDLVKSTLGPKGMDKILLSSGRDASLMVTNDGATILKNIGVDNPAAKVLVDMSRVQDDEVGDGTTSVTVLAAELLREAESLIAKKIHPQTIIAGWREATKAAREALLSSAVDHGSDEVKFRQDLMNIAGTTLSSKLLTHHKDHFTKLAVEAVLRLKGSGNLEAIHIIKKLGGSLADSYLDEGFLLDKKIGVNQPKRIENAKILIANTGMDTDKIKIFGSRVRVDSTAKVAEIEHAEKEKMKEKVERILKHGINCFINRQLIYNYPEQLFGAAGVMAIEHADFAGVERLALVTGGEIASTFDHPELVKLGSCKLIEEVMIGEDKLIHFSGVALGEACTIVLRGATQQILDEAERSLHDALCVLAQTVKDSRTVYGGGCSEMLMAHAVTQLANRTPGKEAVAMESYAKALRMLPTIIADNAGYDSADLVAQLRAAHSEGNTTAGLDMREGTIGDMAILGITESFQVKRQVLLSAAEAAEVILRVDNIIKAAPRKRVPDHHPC
UniProt Q8IVM0: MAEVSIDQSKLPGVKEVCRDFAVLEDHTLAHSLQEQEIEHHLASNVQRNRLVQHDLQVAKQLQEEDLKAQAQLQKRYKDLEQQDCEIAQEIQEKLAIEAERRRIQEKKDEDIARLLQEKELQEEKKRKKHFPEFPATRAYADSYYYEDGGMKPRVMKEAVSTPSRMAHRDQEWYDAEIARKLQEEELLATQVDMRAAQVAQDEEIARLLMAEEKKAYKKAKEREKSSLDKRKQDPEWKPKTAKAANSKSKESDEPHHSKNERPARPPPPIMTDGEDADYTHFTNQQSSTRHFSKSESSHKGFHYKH

Tests used:
Assay in all cases: log2 fold change, soluble protein after heating vs DMSO (PISA); higher = thermal stabilisation; K562 cells, 10 uM, 30 min; active = over 0.2 and 3.5 SD of the protein, either way, in both replicates (recomputed)
[1] = compound: Cc1ccc(NC(=O)c2ccc(CN3CC[C@H](N(C)C)C3)c(C(F)(F)F)c2)cc1Nc1nccc(-c2cncnc2)n1 [bafetinib]
How it was run: (§1)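 K562 cells (2×10^6 cells/mL) were treated with 10 μM compound for 30 min, and aliquots were heated for 3 min over 48°C-58°C. Pooled aliquots were extracted in PBS with 0.5% NP-40 at 4°C, and the supernatant after 21,000xg for 90 min was measured by TMTpro 16plex LC-MS/MS with channel sums equalised. Reported thermal stability, relative to control samples and from duplicates, is a log2 fold change.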

[2] = compound: Cc1cccc(CC(=O)N2CCc3c2ccc(-c2cn(C)c4ncnc(N)c24)c3F)n1
How it was run: as §1

[3] = compound: Cc1cn(-c2cc(NC(=O)c3ccc(C)c(Nc4nccc(-c5cccnc5)n4)c3)cc(C(F)(F)F)c2)cn1 [nilotinib]
How it was run: as §1

[4] = compound: Cc1nc(Nc2n[nH]c3c2CN(C(=O)N[C@H](CN(C)C)c2ccccc2)C3(C)C)c2sccc2n1
How it was run: as §1

[5] = compound: Cc1nc(Nc2ncc(C(=O)Nc3c(C)cccc3Cl)s2)cc(N2CCN(CCO)CC2)n1 [dasatinib]
How it was run: as §1

[6] = compound: Cc1ncc(-c2ccnc(Nc3ccc(S(C)(=O)=O)cc3)n2)n1C(C)C
How it was run: as §1

[7] = compound: Cn1cc(-c2ccc3c(c2)CCN3C(=O)Cc2cccc(C(F)(F)F)c2)c2c(N)ncnc21
How it was run: as §1

[8] = compound: Cn1cc(-c2ccc3nnc(C(F)(F)c4ccc5ncccc5c4)n3n2)cn1
How it was run: as §1

[9] = compound: Cn1cncc1[C@@](N)(c1ccc(Cl)cc1)c1ccc2c(c1)c(-c1cccc(Cl)c1)cc(=O)n2C [tipifarnib]
How it was run: as §1

[10] = compound: FC(F)(F)c1ccc(/C=C/c2nc(COc3ccc(CCCCn4ccnn4)cc3)co2)cc1 [mubritinib]
How it was run: as §1

[11] = compound: NC(=O)Nc1cc(-c2cccc(F)c2)sc1C(=O)N[C@H]1CCCNC1
How it was run: as §1

[12] = compound: NC(=O)c1cnc(N[C@@H]2CCCC[C@@H]2N)nc1Nc1cccc(-n2nccn2)c1
How it was run: as §1

[13] = compound: NC1(c2ccc(-c3nc4ccn5c(=O)[nH]nc5c4cc3-c3ccccc3)cc2)CCC1
How it was run: as §1

[14] = compound: NCC(=O)Nc1ccc(-n2nc(C(F)(F)F)cc2-c2ccc3c(ccc4ccccc43)c2)cc1
How it was run: as §1

[15] = compound: Nc1ccccc1NC(=O)c1ccc(CNC(=O)OCc2cccnc2)cc1 [entinostat]
How it was run: as §1

[16] = compound: O=C(CCCCCCC(=O)Nc1ccccc1)NO [vorinostat]
How it was run: as §1

[17] = compound: O=C(CCCCCCNC(=O)c1cnc(N(c2ccccc2)c2ccccc2Cl)nc1)NO [citarinostat]
How it was run: as §1

[18] = compound: O=C(O)c1ccc2c(c1)nc(Nc1cccc(Cl)c1)c1ccncc12 [silmitasertib]
How it was run: as §1

[19] = compound: O=C1NC(=O)C(c2cnc3ccccn23)=C1c1cn2c3c(cc(F)cc13)CN(C(=O)N1CCCCC1)CC2
How it was run: as §1

[20] = compound: c1cc(OCCN2CCCCC2)cc(-c2n[nH]c3ccc(-c4nnc[nH]4)cc23)c1
How it was run: as §1

Measured: log2 fold change

CARS isoform 3 (UniProt P49589)
inactive: [1] -0.039 | [2] 0.075 | [3] -0.029 | [4] 0.011 | [5] 0.016 | [6] -0.002 | [7] 0 | [8] 0.015 | [9] -0.03 | [10] 0.026 | [11] -0.012 | [12] -0.016 | [13] -0.034 | [14] -0.027 | [15] -0.011 | [16] 0.038 | [17] 0.02 | [18] -0.02 | [19] 0.002 | [20] -0.019

CD97 (UniProt P48960)
inactive: [1] -0.039 | [2] -0.084 | [3] 0.003 | [4] -0.002 | [5] 0.002 | [6] 0.016 | [7] -0.028 | [8] 0.002 | [9] 0.042 | [10] 0.043 | [11] -0.056 | [12] 0.082 | [13] 0.017 | [14] 0.051 | [15] -0.055 | [16] -0.079 | [17] 0.065 | [18] 0.015 | [19] -0.009 | [20] -0.103

CCT3 (UniProt P49368)
inactive: [1] -0.017 | [2] -0.023 | [3] -0.049 | [4] 0.008 | [5] 0.002 | [6] 0 | [7] 0.009 | [8] -0.016 | [9] 0.026 | [10] 0.004 | [11] -0.027 | [12] 0.012 | [13] 0.007 | [14] 0.04 | [15] -0.017 | [16] 0 | [17] -0.013 | [18] -0.026 | [19] -0.068 | [20] -0.01

CCDC124 (UniProt Q96CT7)
inactive: [1] 0.053 | [2] -0.026 | [3] -0.006 | [4] 0.031 | [5] 0.067 | [6] -0.004 | [7] -0.046 | [8] -0.036 | [9] 0.019 | [10] 0.006 | [11] 0.002 | [12] -0.02 | [13] 0.094 | [14] 0 | [15] -0.026 | [16] -0.002 | [17] -0.039 | [18] 0.016 | [19] 0.072 | [20] -0.053

CDC23 (UniProt Q9UJX2)
inactive: [1] 0.008 | [2] -0.038 | [3] -0.013 | [4] -0.025 | [5] 0.005 | [6] -0.007 | [7] -0.052 | [8] -0.021 | [9] 0.002 | [10] -0.007 | [11] -0.048 | [12] 0.015 | [13] -0.044 | [14] -0.02 | [15] -0.025 | [16] 0.005 | [17] 0.032 | [18] 0.035 | [19] 0.001 | [20] -0.059

CASC4 (UniProt Q6P4E1)
inactive: [1] -0.066 | [2] -0.038 | [3] 0.018 | [4] -0.015 | [5] 0.028 | [6] 0.034 | [7] -0.118 | [8] 0.105 | [9] 0.056 | [10] 0.012 | [11] -0.002 | [12] -0.005 | [13] -0.012 | [14] 0.01 | [15] -0.026 | [16] -0.013 | [17] 0.037 | [18] 0.025 | [19] -0.024 | [20] -0.017

CCDC86 (UniProt Q9H6F5)
inactive: [1] 0.334 | [2] 0.028 | [3] 0.035 | [4] 0.067 | [5] 0.19 | [6] 0.02 | [7] -0.26 | [8] -0.107 | [9] 0.136 | [10] -0.12 | [11] 0.316 | [12] 0.201 | [13] 0.225 | [14] 0.187 | [15] -0.117 | [16] -0.035 | [17] -0.18 | [18] 0.124 | [19] 0.14 | [20] -0.123

CCS (UniProt O14618)
inactive: [1] -0.037 | [2] 0.01 | [3] -0.007 | [4] -0.058 | [5] -0.053 | [6] -0.038 | [7] 0.029 | [8] 0.066 | [9] -0.035 | [10] 0.079 | [11] -0.018 | [12] 0.068 | [13] -0.046 | [14] -0.055 | [15] -0.003 | [16] 0.02 | [17] 0.059 | [18] 0.008 | [19] -0.018 | [20] 0.002

CASP3 (UniProt P42574)
inactive: [1] -0.031 | [2] -0.042 | [3] 0.013 | [4] -0.012 | [5] 0.002 | [6] -0.007 | [7] 0.008 | [8] -0.022 | [9] -0.055 | [10] 0.007 | [11] 0.051 | [12] 0.053 | [13] 0.075 | [14] 0.043 | [15] -0.029 | [16] 0 | [17] -0.043 | [18] -0.057 | [19] 0.018 | [20] -0.051

CCT6A (UniProt P40227)
inactive: [1] 0.007 | [2] 0.008 | [3] -0.042 | [4] 0.033 | [5] -0.004 | [6] 0.007 | [7] 0.009 | [8] 0.002 | [9] 0.004 | [10] 0.004 | [11] 0.023 | [12] 0.029 | [13] 0.02 | [14] 0.019 | [15] -0.003 | [16] 0.021 | [17] -0.001 | [18] -0.019 | [19] -0.011 | [20] -0.016

CBX1 (UniProt P83916)
inactive: [1] -0.037 | [2] -0.025 | [3] 0.141 | [4] -0.089 | [5] 0.084 | [6] -0.003 | [7] -0.034 | [8] 0.011 | [9] -0.039 | [10] 0.066 | [11] 0.02 | [12] -0.032 | [13] 0.025 | [14] 0.004 | [15] 0.017 | [16] -0.036 | [17] -0.035 | [18] 0.045 | [19] 0.006 | [20] -0.034

CDC123 (UniProt O75794)
inactive: [1] 0.015 | [2] -0.013 | [3] -0.084 | [4] 0.079 | [5] -0.032 | [6] 0.018 | [7] 0.029 | [8] -0.04 | [9] -0.031 | [10] -0.006 | [11] -0.029 | [12] 0.045 | [13] -0.077 | [14] -0.01 | [15] 0.026 | [16] 0.032 | [17] 0.045 | [18] -0.048 | [19] 0.011 | [20] -0.056

CCDC175 (UniProt P0C221)
inactive: [1] -0.078 | [2] 0.097 | [3] 0.104 | [4] -0.006 | [5] -0.024 | [6] -0.027 | [7] -0.094 | [8] -0.026 | [9] -0.065 | [10] 0.076 | [12] -0.13 | [13] -0.028 | [14] -0.051 | [16] -0.001 | [17] -0.039 | [18] -0.068 | [20] 0.027

CAT (UniProt P04040)
inactive: [1] -0.04 | [2] -0.017 | [3] -0.006 | [4] 0.01 | [5] 0.068 | [6] 0 | [7] 0.025 | [8] 0.041 | [9] -0.024 | [10] 0.037 | [11] 0.003 | [12] 0.001 | [13] 0.008 | [14] 0.018 | [15] -0.016 | [16] 0.004 | [17] -0.013 | [18] -0.023 | [19] -0.025 | [20] 0.012

CCT2 (UniProt P78371)
inactive: [1] 0.027 | [2] 0.021 | [3] -0.053 | [4] 0.016 | [5] -0.002 | [6] 0.004 | [7] -0.002 | [8] -0.006 | [9] 0.02 | [10] 0.014 | [11] 0.027 | [12] 0.018 | [13] -0.005 | [14] 0.013 | [15] -0.004 | [16] 0.021 | [17] 0.01 | [18] -0.014 | [19] 0.033 | [20] -0.032

Taken from above (4 entries):
CASP3 (UniProt P42574)
inactive: [1] -0.031 | [2] -0.042 | [3] 0.013 | [4] -0.012 | [5] 0.002 | [6] -0.007 | [7] 0.008 | [8] -0.022 | [9] -0.055 | [10] 0.007 | [11] 0.051 | [12] 0.053 | [13] 0.075 | [14] 0.043 | [15] -0.029 | [16] 0 | [17] -0.043 | [18] -0.057 | [19] 0.018 | [20] -0.051

CCT6A (UniProt P40227)
inactive: [1] 0.007 | [2] 0.008 | [3] -0.042 | [4] 0.033 | [5] -0.004 | [6] 0.007 | [7] 0.009 | [8] 0.002 | [9] 0.004 | [10] 0.004 | [11] 0.023 | [12] 0.029 | [13] 0.02 | [14] 0.019 | [15] -0.003 | [16] 0.021 | [17] -0.001 | [18] -0.019 | [19] -0.011 | [20] -0.016

CBX1 (UniProt P83916)
inactive: [1] -0.037 | [2] -0.025 | [3] 0.141 | [4] -0.089 | [5] 0.084 | [6] -0.003 | [7] -0.034 | [8] 0.011 | [9] -0.039 | [10] 0.066 | [11] 0.02 | [12] -0.032 | [13] 0.025 | [14] 0.004 | [15] 0.017 | [16] -0.036 | [17] -0.035 | [18] 0.045 | [19] 0.006 | [20] -0.034

CDC123 (UniProt O75794)
inactive: [1] 0.015 | [2] -0.013 | [3] -0.084 | [4] 0.079 | [5] -0.032 | [6] 0.018 | [7] 0.029 | [8] -0.04 | [9] -0.031 | [10] -0.006 | [11] -0.029 | [12] 0.045 | [13] -0.077 | [14] -0.01 | [15] 0.026 | [16] 0.032 | [17] 0.045 | [18] -0.048 | [19] 0.011 | [20] -0.056

Next part:

CCDC50 (UniProt Q8IVM0)
inactive: [1] -0.017 | [2] 0.002 | [3] 0.024 | [4] 0 | [5] 0.01 | [6] 0.034 | [7] -0.006 | [8] -0.01 | [9] -0.003 | [10] 0.036 | [11] -0.05 | [12] -0.004 | [13] -0.023 | [14] -0.022 | [15] -0.032 | [16] -0.004 | [17] 0.002 | [18] -0.023 | [19] 0.189 | [20] -0.033
